This is one part of the list. Small differences around the control level are noise.
Compound: CN[C@@H]1C[C@H]2O[C@@](C)([C@@H]1OC)n1c3ccccc3c3c4c(c5c6ccccc6n2c5c31)C(=O)NC4 [staurosporine]
Test: log2 fold change of tryptic peptide abundance, ligand vs vehicle (limited proteolysis) (log2 ratio); higher = more trypsin-susceptible (destabilized)
Details: ligand concentration: 20 uM; sample: mouse liver crude lysate; replicate design: treated separately

Chains of the proteins cited; added tags and fusions are not shown. Lines headed by an entry give the natural chain unless they say otherwise; changes in a name come on top.
UniProt Q99J10: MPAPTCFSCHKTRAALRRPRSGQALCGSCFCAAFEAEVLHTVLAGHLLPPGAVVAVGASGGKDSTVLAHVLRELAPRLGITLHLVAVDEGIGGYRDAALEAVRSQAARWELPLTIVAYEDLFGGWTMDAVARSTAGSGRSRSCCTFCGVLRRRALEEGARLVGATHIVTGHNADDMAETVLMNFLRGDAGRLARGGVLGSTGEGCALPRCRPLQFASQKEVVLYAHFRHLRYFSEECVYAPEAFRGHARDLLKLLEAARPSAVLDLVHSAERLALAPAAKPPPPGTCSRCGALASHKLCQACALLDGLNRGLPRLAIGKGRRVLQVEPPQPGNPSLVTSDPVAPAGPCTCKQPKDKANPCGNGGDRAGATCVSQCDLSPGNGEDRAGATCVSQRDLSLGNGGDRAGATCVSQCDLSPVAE
UniProt Q921G7: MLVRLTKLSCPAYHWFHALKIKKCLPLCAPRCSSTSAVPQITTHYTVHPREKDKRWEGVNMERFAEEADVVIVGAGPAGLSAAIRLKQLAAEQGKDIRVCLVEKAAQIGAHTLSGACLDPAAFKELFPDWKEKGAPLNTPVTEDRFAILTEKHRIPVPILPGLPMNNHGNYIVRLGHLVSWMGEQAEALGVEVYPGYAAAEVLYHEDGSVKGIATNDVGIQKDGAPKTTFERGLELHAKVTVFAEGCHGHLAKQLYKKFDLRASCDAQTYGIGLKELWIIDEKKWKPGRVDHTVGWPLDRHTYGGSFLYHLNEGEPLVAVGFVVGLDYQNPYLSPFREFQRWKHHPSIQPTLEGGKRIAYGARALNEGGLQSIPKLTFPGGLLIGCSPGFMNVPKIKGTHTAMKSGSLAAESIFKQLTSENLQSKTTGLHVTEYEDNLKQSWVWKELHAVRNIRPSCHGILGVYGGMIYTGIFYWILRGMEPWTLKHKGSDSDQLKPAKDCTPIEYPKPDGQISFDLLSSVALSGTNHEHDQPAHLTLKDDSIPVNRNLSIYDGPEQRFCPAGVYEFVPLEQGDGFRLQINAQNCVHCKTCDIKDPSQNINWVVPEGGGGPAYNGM
UniProt Q99KC8: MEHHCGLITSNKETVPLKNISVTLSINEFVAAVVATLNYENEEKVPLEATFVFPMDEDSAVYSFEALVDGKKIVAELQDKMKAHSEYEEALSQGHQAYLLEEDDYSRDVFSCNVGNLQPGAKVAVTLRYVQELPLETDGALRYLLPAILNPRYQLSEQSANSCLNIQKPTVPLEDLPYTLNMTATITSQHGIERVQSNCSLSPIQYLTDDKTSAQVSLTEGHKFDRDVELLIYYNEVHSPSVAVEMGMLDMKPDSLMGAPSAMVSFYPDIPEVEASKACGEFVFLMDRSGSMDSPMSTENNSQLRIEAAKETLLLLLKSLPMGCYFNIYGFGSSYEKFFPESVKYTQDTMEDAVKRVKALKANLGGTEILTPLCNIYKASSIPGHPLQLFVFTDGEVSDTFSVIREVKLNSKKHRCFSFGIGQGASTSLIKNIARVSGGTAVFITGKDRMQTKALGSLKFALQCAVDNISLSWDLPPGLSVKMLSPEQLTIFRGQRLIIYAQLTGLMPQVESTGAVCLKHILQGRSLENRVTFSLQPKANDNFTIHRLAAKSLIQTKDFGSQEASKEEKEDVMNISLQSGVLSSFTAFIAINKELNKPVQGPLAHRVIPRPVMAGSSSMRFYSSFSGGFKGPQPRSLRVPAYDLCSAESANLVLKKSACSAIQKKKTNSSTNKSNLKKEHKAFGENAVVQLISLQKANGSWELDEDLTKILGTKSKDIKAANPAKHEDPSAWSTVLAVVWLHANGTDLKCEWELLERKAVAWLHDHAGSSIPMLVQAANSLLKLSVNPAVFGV
UniProt Q99LD8: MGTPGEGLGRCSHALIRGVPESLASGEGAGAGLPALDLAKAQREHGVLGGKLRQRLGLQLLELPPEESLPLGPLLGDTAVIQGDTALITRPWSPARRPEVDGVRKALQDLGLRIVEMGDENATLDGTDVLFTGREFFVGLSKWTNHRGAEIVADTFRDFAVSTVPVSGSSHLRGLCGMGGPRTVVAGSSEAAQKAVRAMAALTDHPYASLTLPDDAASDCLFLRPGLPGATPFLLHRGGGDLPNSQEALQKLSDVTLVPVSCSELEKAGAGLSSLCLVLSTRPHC
UniProt Q922H9: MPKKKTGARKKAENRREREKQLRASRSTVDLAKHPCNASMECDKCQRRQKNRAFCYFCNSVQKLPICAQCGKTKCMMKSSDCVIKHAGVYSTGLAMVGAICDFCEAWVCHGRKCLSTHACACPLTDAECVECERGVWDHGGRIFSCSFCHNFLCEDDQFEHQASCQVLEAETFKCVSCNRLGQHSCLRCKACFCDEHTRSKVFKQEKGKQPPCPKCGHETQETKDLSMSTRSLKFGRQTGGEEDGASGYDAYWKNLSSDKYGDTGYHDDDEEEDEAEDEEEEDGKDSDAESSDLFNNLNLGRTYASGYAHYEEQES
UniProt Q921L5: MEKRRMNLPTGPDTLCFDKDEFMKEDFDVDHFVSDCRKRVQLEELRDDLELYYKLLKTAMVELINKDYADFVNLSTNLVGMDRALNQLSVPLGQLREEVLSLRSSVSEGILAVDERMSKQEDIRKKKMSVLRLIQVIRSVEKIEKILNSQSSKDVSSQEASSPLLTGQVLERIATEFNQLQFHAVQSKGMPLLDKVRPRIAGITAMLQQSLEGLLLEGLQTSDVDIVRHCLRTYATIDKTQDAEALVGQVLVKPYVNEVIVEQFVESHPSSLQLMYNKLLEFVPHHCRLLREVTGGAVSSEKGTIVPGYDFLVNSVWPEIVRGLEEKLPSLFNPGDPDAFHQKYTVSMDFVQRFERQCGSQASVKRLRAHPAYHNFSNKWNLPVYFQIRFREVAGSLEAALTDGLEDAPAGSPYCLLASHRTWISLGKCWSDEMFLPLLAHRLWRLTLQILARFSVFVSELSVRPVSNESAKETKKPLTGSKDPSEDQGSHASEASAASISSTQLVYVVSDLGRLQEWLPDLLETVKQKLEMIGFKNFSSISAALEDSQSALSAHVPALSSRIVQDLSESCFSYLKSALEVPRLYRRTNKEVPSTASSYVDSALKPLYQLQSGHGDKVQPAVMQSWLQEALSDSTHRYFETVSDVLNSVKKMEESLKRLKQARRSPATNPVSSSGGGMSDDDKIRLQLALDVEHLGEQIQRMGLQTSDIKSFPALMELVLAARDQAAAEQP
UniProt Q922Q2: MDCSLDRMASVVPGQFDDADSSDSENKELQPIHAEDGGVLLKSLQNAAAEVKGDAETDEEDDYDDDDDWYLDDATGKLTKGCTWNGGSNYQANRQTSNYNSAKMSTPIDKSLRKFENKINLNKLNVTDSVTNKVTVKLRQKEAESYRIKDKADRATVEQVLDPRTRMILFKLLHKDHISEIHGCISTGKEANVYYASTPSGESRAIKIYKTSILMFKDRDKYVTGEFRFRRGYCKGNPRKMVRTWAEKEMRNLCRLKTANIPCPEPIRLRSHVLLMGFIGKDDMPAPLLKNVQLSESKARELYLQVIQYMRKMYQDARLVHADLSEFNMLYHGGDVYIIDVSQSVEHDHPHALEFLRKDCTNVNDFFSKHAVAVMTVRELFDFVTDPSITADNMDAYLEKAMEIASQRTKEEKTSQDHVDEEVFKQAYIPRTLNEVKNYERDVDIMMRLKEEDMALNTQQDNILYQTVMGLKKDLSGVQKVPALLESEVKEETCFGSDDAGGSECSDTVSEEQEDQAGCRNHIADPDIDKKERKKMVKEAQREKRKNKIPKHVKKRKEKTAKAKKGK
UniProt Q99KR7: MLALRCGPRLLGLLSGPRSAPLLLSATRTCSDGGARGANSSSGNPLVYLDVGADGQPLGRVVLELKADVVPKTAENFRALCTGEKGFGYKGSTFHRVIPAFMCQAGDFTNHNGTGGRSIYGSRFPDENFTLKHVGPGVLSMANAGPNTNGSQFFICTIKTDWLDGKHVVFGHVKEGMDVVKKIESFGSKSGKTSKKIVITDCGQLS
UniProt Q921E2: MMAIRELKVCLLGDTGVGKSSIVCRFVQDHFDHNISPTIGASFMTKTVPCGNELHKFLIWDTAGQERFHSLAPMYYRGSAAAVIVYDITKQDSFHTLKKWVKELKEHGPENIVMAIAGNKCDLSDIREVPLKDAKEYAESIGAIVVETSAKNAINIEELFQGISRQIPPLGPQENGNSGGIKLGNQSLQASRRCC
UniProt Q921M3: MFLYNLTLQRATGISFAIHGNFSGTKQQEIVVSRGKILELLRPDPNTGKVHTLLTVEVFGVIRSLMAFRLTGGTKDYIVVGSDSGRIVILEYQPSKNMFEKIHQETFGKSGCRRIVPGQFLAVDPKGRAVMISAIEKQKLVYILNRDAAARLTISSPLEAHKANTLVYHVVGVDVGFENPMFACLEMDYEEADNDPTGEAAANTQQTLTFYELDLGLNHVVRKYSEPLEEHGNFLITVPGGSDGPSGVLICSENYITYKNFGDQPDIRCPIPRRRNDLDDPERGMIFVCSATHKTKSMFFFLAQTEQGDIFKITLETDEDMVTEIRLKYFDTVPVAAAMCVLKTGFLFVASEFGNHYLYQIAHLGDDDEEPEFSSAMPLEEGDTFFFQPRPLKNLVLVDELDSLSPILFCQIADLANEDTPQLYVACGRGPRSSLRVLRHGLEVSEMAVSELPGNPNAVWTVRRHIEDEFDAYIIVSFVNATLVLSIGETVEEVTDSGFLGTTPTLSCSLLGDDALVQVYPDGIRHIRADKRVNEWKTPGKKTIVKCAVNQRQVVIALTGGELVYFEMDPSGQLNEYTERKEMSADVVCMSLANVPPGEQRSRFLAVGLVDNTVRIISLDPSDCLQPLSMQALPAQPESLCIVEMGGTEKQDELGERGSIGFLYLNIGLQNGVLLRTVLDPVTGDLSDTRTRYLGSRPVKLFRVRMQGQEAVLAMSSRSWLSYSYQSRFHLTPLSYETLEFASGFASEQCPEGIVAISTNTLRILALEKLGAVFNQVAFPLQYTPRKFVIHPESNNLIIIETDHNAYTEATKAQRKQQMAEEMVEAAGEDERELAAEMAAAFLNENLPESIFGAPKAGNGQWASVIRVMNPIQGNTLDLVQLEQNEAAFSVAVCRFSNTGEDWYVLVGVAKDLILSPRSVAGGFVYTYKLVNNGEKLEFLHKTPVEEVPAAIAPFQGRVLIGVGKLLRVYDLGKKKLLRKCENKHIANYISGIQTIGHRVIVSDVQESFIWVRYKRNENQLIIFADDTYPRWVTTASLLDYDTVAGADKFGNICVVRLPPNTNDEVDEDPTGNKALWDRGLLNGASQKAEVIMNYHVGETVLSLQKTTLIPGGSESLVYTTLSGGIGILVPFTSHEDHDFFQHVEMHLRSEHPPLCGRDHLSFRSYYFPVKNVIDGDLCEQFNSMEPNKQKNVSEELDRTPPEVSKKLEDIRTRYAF
UniProt Q922E4: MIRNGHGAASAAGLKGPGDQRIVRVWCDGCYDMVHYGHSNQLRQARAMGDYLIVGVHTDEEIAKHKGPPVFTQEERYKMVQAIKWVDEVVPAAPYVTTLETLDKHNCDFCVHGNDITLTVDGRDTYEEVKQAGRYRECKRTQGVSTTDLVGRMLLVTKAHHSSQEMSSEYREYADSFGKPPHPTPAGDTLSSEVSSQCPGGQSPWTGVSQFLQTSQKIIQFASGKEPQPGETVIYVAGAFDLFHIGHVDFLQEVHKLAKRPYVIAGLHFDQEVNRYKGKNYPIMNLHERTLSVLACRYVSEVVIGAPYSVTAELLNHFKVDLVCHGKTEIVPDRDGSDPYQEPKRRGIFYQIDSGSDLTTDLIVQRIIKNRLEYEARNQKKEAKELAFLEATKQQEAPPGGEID
UniProt Q99JT9: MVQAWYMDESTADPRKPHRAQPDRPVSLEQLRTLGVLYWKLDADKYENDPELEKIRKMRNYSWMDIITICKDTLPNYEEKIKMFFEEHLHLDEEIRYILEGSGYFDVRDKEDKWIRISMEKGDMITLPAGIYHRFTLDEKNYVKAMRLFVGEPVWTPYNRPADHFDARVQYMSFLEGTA
UniProt Q922R8: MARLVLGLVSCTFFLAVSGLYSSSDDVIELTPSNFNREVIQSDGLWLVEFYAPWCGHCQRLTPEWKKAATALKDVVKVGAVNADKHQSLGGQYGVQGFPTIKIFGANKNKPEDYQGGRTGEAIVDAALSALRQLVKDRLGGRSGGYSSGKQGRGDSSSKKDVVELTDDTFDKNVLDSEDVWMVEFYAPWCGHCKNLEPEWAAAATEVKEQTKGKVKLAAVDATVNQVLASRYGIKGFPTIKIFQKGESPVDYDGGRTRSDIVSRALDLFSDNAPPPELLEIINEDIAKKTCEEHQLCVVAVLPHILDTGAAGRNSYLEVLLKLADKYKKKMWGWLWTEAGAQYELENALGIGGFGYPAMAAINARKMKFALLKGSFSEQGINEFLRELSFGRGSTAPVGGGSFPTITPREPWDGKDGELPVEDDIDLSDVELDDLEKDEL
UniProt Q99KC7: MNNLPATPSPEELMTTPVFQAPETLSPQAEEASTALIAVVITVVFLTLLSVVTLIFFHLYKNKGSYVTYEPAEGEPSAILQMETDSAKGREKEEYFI

| Target | log2 fold change |
| --- | --- |
| UniProt Q99J10 (peptide sequence: CRPLQFASQK, peptide start residue: 210) | 0.499 |
| UniProt Q921G7 (peptide sequence: HRIPVPILPGLPMNNHGNYIVR, peptide start residue: 153) | -0.105 |
| UniProt Q99KC8 (peptide sequence: ELNKPVQGPLAHR, peptide start residue: 594) | -0.788 |
| UniProt Q925E0 (peptide sequence: EAPSFLKLPLGSPGPSSDHSSR, peptide start residue: 157) | -0.431 |
| UniProt Q91ZX7 (peptide sequence: ILWIDAR, peptide start residue: 1449) | 0.287 |
| UniProt Q99JY1 (peptide sequence: FMYYVDGR, peptide start residue: 213) | -0.289 |
| UniProt Q99J08 (peptide sequence: AGEMTEVLPNQR, peptide start residue: 330) | -0.227 |
| UniProt Q99LD8 (peptide sequence: TVVAGSSEAAQK, peptide start residue: 183) | -0.728 |
| UniProt Q922H9 (peptide sequence: CGHETQETK, peptide start residue: 216) | -0.505 |
| UniProt Q921L5 (peptide sequence: TAMVELINK, peptide start residue: 58) | -0.364 |
| UniProt Q921J2 (peptide sequence: IILEAEKIDGAASQGK, peptide start residue: 163) | -0.133 |
| UniProt Q99LI5 (peptide sequence: TDEHGNQEPK, peptide start residue: 202) | -0.599 |
| UniProt Q99KJ8 (peptide sequence: ASVEDADTQNK, peptide start residue: 299) | -0.157 |
| UniProt Q922Q2 (peptide sequence: LNVTDSVTNK, peptide start residue: 124) | -0.173 |
| UniProt Q99LI2 (peptide sequence: ALEPDDRR, peptide start residue: 373) | -0.414 |
| UniProt Q99KR7 (peptide sequence: HVVFGHVK, peptide start residue: 167) | 0.24 |

| Target | log2 fold change |
| --- | --- |
| UniProt Q925E7 (peptide sequence: VPILKPMDLMVEASPR, peptide start residue: 160) | 0.265 |
| UniProt Q99L45 (peptide sequence: TSFVNFTDICKLLHRQPK, peptide start residue: 215) | -0.503 |
| UniProt Q923D5 (peptide sequence: DDVYEAFMK, peptide start residue: 627) | 0.166 |
| UniProt Q921I9 (peptide sequence: SCEMGLQLR, peptide start residue: 96) | -0.233 |
| UniProt Q921E2 (peptide sequence: EVPLKDAK, peptide start residue: 127) | -0.426 |
| UniProt Q921M3 (peptide sequence: GLLNGASQK, peptide start residue: 1080) | -0.405 |
| UniProt Q922E4 (peptide sequence: RPYVIAGLHFDQEVNR, peptide start residue: 260) | 0.306 |
| UniProt Q99JT9 (peptide sequence: DTLPNYEEK, peptide start residue: 72) | -0.212 |
| UniProt Q922F4 (peptide sequence: ISVYYNESSSK, peptide start residue: 47) | -0.191 |
| UniProt Q99K67 (peptide sequence: SSVVPVEGCPELPHK, peptide start residue: 334) | -0.211 |
| UniProt Q99LH2 (peptide sequence: DIHTTTGK, peptide start residue: 252) | 1.03 |
| UniProt Q922R8 (peptide sequence: KAATALKDVVK, peptide start residue: 67) | -1.21 |
| UniProt Q99K23 (peptide sequence: ELHDLFNLPHDRPYFK, peptide start residue: 221) | -0.307 |
| UniProt Q99KC7 (peptide sequence: GREKEEYFI, peptide start residue: 89) | -0.119 |
| UniProt Q99KI0 (peptide sequence: LEAPDADELPR, peptide start residue: 524) | 0.26 |

Fetched one by one from above (2):

| Target | log2 fold change |
| --- | --- |
| UniProt Q91ZX7 (peptide sequence: ILWIDAR, peptide start residue: 1449) | 0.287 |
| UniProt Q921E2 (peptide sequence: EVPLKDAK, peptide start residue: 127) | -0.426 |
